# Patent US20240366602A1, “COMBINATION THERAPY OF APELIN RECEPTOR AGONIST AND GLP-1 RECEPTOR AGONIST FOR TREATING A DISEASE OR CONDITION ASSOCIATED WITH WEIGHT GAIN” (BioAge Labs, Inc., priority 2023, published 2024)
# Experiments:
# [1] = system: Diet-Induced Obese (DIO) mice; assay: Pilot study of BGE-105 in aged DIO mice treated with tirzepatide (Example 2); assay type: in vivo
# Diet-Induced Obese Mice = assay: Combination of BAL-1480 and tirzepatide in obese mice (Example 6); assay type: in vivo
# Excerpt: To measure the effect of another APJ agonist, BAL-1480, compound 13 as described by Narayanan et al. in J. Med. Chem. 2021, 64, 3006-3025, on weight loss or body composition in Diet-Induced Obese Mice by GLP-1 receptor agonist tirzepatide.
# Measurement used and justifications include: body weight, food intake, water intake, non-fasted blood glucose, and body composition by Echo-MRI.
# C57BL/6 obese male mice from Jax and housed to 9-months old were fed with a lean control diet D12450B (10 kcal % fat) and a diet-induced obesity (DIO) diet D12492 (60 kcal % fat) (Research Diets, Inc.).
# Male DIO mice were acclimated to a single house cage for two weeks. Body weight, morning non-fasted blood glucose, and body composition were measured for randomization. Target DIO weight range at randomization 51.4-67.5 g. After randomization, mice were given treatment as the following groups (All groups were paired with relative dosing s.c. vehicle (20 mM citrate buffer at pH 7.0, 4 mL/kg) or drinking water with addition of 5 mM Sucralose (5 mM Sucralose, pH 3) to insure water consumption despite possible taste alterations from drug).
# Study groups • 0. Lean ctrl, n=7 • 1. DIO+VEH (vehicle), n=7 • 2. […]
# Body weight, food intake, water intake, body composition and morning non-fasted blood glucose were measured during the entire study. […]
# Data were expressed as mean±SEM and statistically analyzed by 1-way or 2-way ANOVA
Molecule,"Food intake ([1]; beginning of the study, recovered after about 2 weeks)",Daily water intake ([1]; tirzepatide 30 and 10 nmol/kg vs 3 nmol/kg groups),"Rectal temperature (Diet-Induced Obese Mice; day 15, BAL-1480 monotherapy vs VEH group)","Water consumption (Diet-Induced Obese Mice; entire curve up to 18 days, BAL-1480 groups vs tirzepatide group)"
tirzepatide,lower food intake at the beginning of the study,lower water intake,,
COc1cccc(OC)c1-c1cc(C(=O)N[C@@H](CCN2CCCCC2)CC(=O)NC2CCC2)nn1C1CCCC1 [BAL-1480],,,dose-dependent increase of body temperature,significantly lower than the tirzepatide group
